# Assay results published in article PMC5996148.
# Several values for one entry are separate records, joined by “and”; a condition that tells them apart may be missing. Identical values can stand only once. The list shows a part of the results. For some assays here: The exact form of the protein is not confirmed.
# Experiments:
# Test in all cases: protein microarray (ProtoArray v5.0), streptavidin-Alexa Fluor 647
# Settings in all cases: 3'-biotin; 20 mM Tris (pH 7.5), 5 mM MgCl2, 100 mM KCl, 0.1% Tween-20, A/T-rich and random oligonucleotide blockers; temperature not stated; high values mean tight binding
# C9orf46 (human) = system: C9orf46 (human)
# C9orf71 (human) = system: C9orf71 (human)
# C9orf95 (human) = system: C9orf95 (human)
# CA2 (human) = system: CA2 (human)
# CA9 = CA9 (UniProt Q16790)
# CACNG1 (human) = system: CACNG1 (human)
# CACYBP = CACYBP (UniProt Q9HB71)
# CALB1 (human) = system: CALB1 (human)
# CALM2 (human) = system: CALM2 (human)
# CALM3 = CALM3 (UniProt P0DP25)
# CAMK1D (human) = system: CAMK1D (human)
# CAMK4 (human) = system: CAMK4 (human)
# CANT1 (human) = system: CANT1 (human)
# CAPNS2 (human) = system: CAPNS2 (human)
# CAPS (human) = system: CAPS (human)
# CAPZA2 (human) = system: CAPZA2 (human)
# CAT (human) = system: CAT (human)
# CBS (human) = system: CBS (human)
# CBX5 = CBX5 (UniProt P45973)
# CCDC107 (human) = system: CCDC107 (human)
sequence,measurement,setting,value
GGGGACAGGGGTATGGGGAGGGG [G4-3 biotinylated (CtG)],binding signal,C9orf46 (human),-0.309 z-score
same,binding signal,C9orf71 (human),-0.324 z-score
same,binding signal,C9orf95 (human),-0.329 z-score
same,binding signal,CA2 (human),-0.324 z-score
same,binding signal,CA9,-0.341 z-score
same,binding signal,CACNG1 (human),-0.313 z-score
same,binding signal,CACYBP,3.85 z-score
same,binding signal,CALB1 (human),-0.326 z-score
same,binding signal,CALM2 (human),-0.331 z-score
same,binding signal,CALM3,-0.336 z-score
same,binding signal,CAMK1D (human),-0.334 z-score and -0.333 z-score
same,binding signal,CAMK4 (human),-0.331 z-score
same,binding signal,CANT1 (human),-0.324 z-score
same,binding signal,CAPNS2 (human),-0.32 z-score
same,binding signal,CAPS (human),-0.335 z-score and -0.343 z-score
same,binding signal,CAPZA2 (human),-0.322 z-score
same,binding signal,CAT (human),-0.338 z-score
same,binding signal,CBS (human),-0.331 z-score
same,binding signal,CBX5,3.91 z-score
same,binding signal,CCDC107 (human),-0.316 z-score
